{"source": "patent US20230248741A1", "about": "“Compositions and Methods for Lowering Triglycerides in a Subject with Reduced Kidney Function and Diabetes Mellitus” (Amarin Pharmaceuticals Ireland Limited, priority 2018, published 2023)", "format_in_all_cases": "in vivo, human", "key": {"[1]": {"assay": "Essential fatty acids in plasma and RBC by gas chromatography, 6-week AAMI study", "details": "E-EPA 1, 2, and 4 g", "procedure": "Blood samples (10 mL) were collected at Visit 1 (screening) and at Visits 4, 5, and 6. Analysis was performed by MSR Lipid Analysis, Scottish Crop Research Institute, Dundee, UK. The screening sample acted as baseline for the EFA measurements. Lipid was extracted from plasma, serum, and RBC suspensions and converted into fatty acid methyl esters which were analyzed by gas chromatography to give fatty acid profiles as micrograms fatty acid per gram of sample (mFA/g) and normalized area percent.\nRBC and plasma EFA data were collected at baseline, Day 14, 28, and 42 and summarized by visit for each treatment group. Change from baseline and percent change from baseline were also summarized. ANCOVA comparison of E-EPA dose groups and E-EPA versus placebo was performed.\nNotable changes for these parameters occurred in the E-EPA treatment groups at Days 14, 28, and 42 compared to placebo."}, "[2]": {"tested_on": "subjects with Age-Associated Memory Impairment", "assay": "CDR computerized cognitive test battery, 6-week AAMI study", "details": "for Quality of Episodic Secondary Memory, LS mean difference: overall; for Self-Rated Contentment: p<0.001"}, "[3]": {"tested_on": "patients with eGFR <90 mL/min/1.73 m^2 for ≥3 months and hsCRP ≥2.0 mg/L", "assay": "ANCHOR post-hoc: lipid parameters", "details": "4 g/day; 12 weeks", "procedure": "CVD-related (e.g., atherogenic) parameters were analyzed in a post-hoc study of 152 patients from the multi-center, placebo-controlled, randomized double-blind, 12-week study described in Example 1. These 152 patients have reduced kidney reduced function (e.g., eGFR<90 mL/min/1.73 m^2 for ≥3 months) and hsCRP≥2.0 mg/L.\nSubjects: 72 patients were randomized to E-EPA and 80 patients were randomized to placebo. In total, atherogenic parameters were analyzed in all 152 patients, 54% of which were male and 99% of which were white. The mean age of the 152 patients was 64 years old.\nThe primary objective of this post-hoc study, was to determine if and how 4 g of daily of >96% E-EPA, compared to placebo, affects patients with reduced kidney function, elevated hsCRP (e.g, hsCRP≥2.0 mg/L), and high triglyceride levels. […] CVD-parameters were analyzed for median difference in percent change from baseline to week 12 in subjects receiving 4 g/day of E-EPA and those receiving the placebo.\nAnalysis: The median difference in lipid/lipoprotein, apolipoprotein, and inflammatory parameters were determined from baseline to week 12 for 4/g day of E-EPA compared to placebo."}, "[4]": {"details": "post-hoc vs corresponding placebo"}}, "note": "At least one compound was matched to its structure with a doubt left.", "data": [{"smiles": "CC/C=C\\C/C=C\\C/C=C\\C/C=C\\C/C=C\\CCCC(=O)OCC", "note": "[E-EPA, ethyl eicosapentaenoate]", "values": [{"measurement": "EPA, DPAn-3, and EPA/AA ratio values in plasma and RBC", "setting": "[1]; baseline to Day 42", "result": "increased substantially from baseline"}, {"measurement": "AA, DHA, and DGLA values in plasma and RBC", "setting": "[1]; baseline to day 42", "result": "decreased substantially from baseline"}, {"measurement": "Immediate Word Recall Accuracy, LS mean difference vs placebo", "setting": "[2]; ITT, 1 g, Day 14 (p=0.028), AM 1 (p=0.040), Day 14 at PM 2 (p=0.020)", "result": "statistically significant decreases"}, {"measurement": "Picture Recognition Speed", "setting": "[2]; ITT, 1 g, Day 14 at AM 2 (p=0.084), Day 28 at AM 1 (p=0.085)", "result": "trends for benefits versus placebo"}, {"measurement": "Word Recognition Sensitivity Index, LS mean difference vs placebo", "setting": "[2]; ITT, 1 g, Day 28 (p=0.024)", "result": "statistically significant decreases"}, {"measurement": "Picture Recognition Sensitivity Index, LS mean difference vs placebo", "setting": "[2]; ITT, 1 g, Day 28 at AM 2 (p=0.017) and PM 2 (p=0.040)", "result": "statistically significant decrease"}, {"measurement": "Immediate Word Recall Accuracy, LS mean difference vs placebo", "setting": "[2]; ITT, 2 g, Day 28 (p=0.017), AM 1 (p=0.028), Day 28 at AM 1 (p=0.006)", "result": "statistically significant decreases"}, {"measurement": "Self-Rated Alertness, LS mean difference vs placebo", "setting": "[2]; ITT, 2 g, Day 28 (p=0.047), Day 28 at AM 2 (p=0.041)", "result": "statistically significant decrease in ratings"}, {"measurement": "Spatial Working Memory Speed, LS mean difference", "setting": "[2]; ITT, 4 g, Day 14 at PM 1 (p=0.048)", "result": "statistically significant benefit versus placebo"}, {"measurement": "Word Recognition Sensitivity Index, LS mean difference vs placebo", "setting": "[2]; ITT, 4 g, Day 42 (p=0.038), PM 2 (p=0.045), Day 28 at PM 2 (p=0.030)", "result": "statistically significant decreases"}, {"measurement": "Spatial Working Memory Speed, LS mean difference", "setting": "[2]; ITT, 4 g, Day 42 at AM 1 (p=0.061)", "result": "trend for a benefit"}, {"measurement": "Continuity of Attention and Digit Vigilance Targets Detected", "setting": "[2]; Intent-to-Treat", "result": "no statistically significant effect of treatment"}, {"measurement": "Immediate and Delayed Word Recall Accuracies, Word and Picture Recognition Sensitivity Indices", "setting": "[2]; Intent-to-Treat", "result": "no statistically significant effects of treatment"}, {"measurement": "Quality of Episodic Secondary Memory", "setting": "[2]; Intent-to-Treat", "result": "no statistically significant effect of treatment"}, {"measurement": "Self-Rated Alertness", "setting": "[2]; Intent-to-Treat", "result": "no statistically significant effect of treatment"}, {"measurement": "Self-Rated Calmness", "setting": "[2]; Intent-to-Treat", "result": "no statistically significant effect of treatment"}, {"measurement": "Self-Rated Contentment, LS mean difference to placebo", "setting": "[2]; Intent-to-Treat", "result": "no statistically significant effects"}, {"measurement": "Simple Reaction Time and Digit Vigilance Speed", "setting": "[2]; Intent-to-Treat", "result": "no statistically significant effects of treatment"}, {"measurement": "Speed of Memory and subtasks (Spatial and Numeric Working Memory Speeds, Word and Picture Recognition Speeds)", "setting": "[2]; Intent-to-Treat", "result": "no statistically significant effects of treatment"}, {"measurement": "Power of Attention", "setting": "[2]; Intent-to-Treat, 1, 2, 4 g vs placebo", "result": "no statistically significant effect of treatment"}, {"measurement": "Quality of Episodic Secondary Memory, LS mean difference", "setting": "[2]; Intent-to-Treat, 1 g, p=0.040", "result": "statistically significant decreases versus placebo"}, {"measurement": "Quality of Episodic Secondary Memory, LS mean difference", "setting": "[2]; Intent-to-Treat, 2 g, p=0.035", "result": "statistically significant decreases versus placebo"}, {"measurement": "Self-Rated Contentment", "setting": "[2]; Intent-to-Treat", "result": "statistically significant treatment by day interaction"}, {"measurement": "Choice Reaction Time", "setting": "[2]; Intent-to-Treat, p=0.011", "result": "statistically significant treatment by day interaction"}, {"measurement": "Spatial Working Memory Sensitivity Index", "setting": "[2]; Intent-to-Treat, p=0.015", "result": "statistically significant treatment by day interaction"}, {"measurement": "Quality of Working Memory", "setting": "[2]; Intent-to-Treat, p=0.019", "result": "statistically significant treatment by day interaction"}, {"measurement": "Numeric Working Memory Sensitivity Index", "setting": "[2]; Intent-to-Treat, p=0.089", "result": "statistical trend for a treatment by day interaction"}, {"measurement": "Immediate Word Recall Accuracy, LS mean difference to placebo", "setting": "[2]; PP, 1 g, Day 14 (p=0.024), AM 1 (p=0.038), AM 2 (p=0.048), Day 14 at PM 2 (p=0.019)", "result": "statistically significant decreases"}, {"measurement": "Word Recognition Sensitivity Index, LS mean difference to placebo", "setting": "[2]; PP, 1 g, Day 28 (p=0.027)", "result": "statistically significant decreases"}, {"measurement": "Picture Recognition Sensitivity Index, LS mean difference", "setting": "[2]; PP, 1 g, Day 28 at AM 2 (p=0.020) and PM 2 (p=0.026)", "result": "statistically significant decreases versus placebo"}, {"measurement": "Immediate Word Recall Accuracy, LS mean difference to placebo", "setting": "[2]; PP, 2 g, Day 28 (p=0.017), AM 1 (p=0.029), Day 28 at AM 1 (p=0.006)", "result": "statistically significant decreases"}, {"measurement": "Self-Rated Alertness, LS mean difference vs placebo", "setting": "[2]; PP, 2 g, Day 28 (p=0.035), Day 28 at AM 2 (p=0.033)", "result": "statistically significant decrease in ratings"}, {"measurement": "Word Recognition Sensitivity Index, LS mean difference to placebo", "setting": "[2]; PP, 4 g, Day 42 (p=0.038)", "result": "statistically significant decreases"}, {"measurement": "Self-Rated Calmness, LS mean difference", "setting": "[2]; PP, 4 g, Day 42 at PM 1 (p=0.071)", "result": "statistical trend for an increase in ratings versus placebo"}, {"measurement": "Continuity of Attention", "setting": "[2]; Study Per Protocol", "result": "no statistically significant effect of treatment"}, {"measurement": "Digit Vigilance Targets Detected", "setting": "[2]; Study Per Protocol, p=0.040", "result": "statistically significant treatment by time-point interaction"}, {"measurement": "Immediate and Delayed Word Recall Accuracies, Word and Picture Recognition Sensitivity Indices", "setting": "[2]; Study Per-Protocol", "result": "no statistically significant effects of treatment"}, {"measurement": "Power of Attention", "setting": "[2]; Study Per-Protocol", "result": "no statistically significant effect of treatment"}, {"measurement": "Quality of Episodic Secondary Memory", "setting": "[2]; Study Per-Protocol", "result": "no statistically significant effects of treatment"}, {"measurement": "Self-Rated Alertness", "setting": "[2]; Study Per-Protocol", "result": "no statistically significant effect of treatment"}, {"measurement": "Self-Rated Calmness", "setting": "[2]; Study Per-Protocol", "result": "no statistically significant effect of treatment"}, {"measurement": "Self-Rated Contentment, LS mean difference to placebo", "setting": "[2]; Study Per-Protocol", "result": "no statistically significant effects"}, {"measurement": "Simple Reaction Time and Digit Vigilance Speed", "setting": "[2]; Study Per-Protocol", "result": "no statistically significant effects of treatment"}, {"measurement": "Speed of Memory and subtasks", "setting": "[2]; Study Per-Protocol", "result": "no statistical significant effects of treatment"}, {"measurement": "Quality of Episodic Secondary Memory, LS mean difference", "setting": "[2]; Study Per-Protocol, 1 g, p=0.043", "result": "statistically significant decreases versus placebo"}, {"measurement": "Quality of Episodic Secondary Memory, LS mean difference", "setting": "[2]; Study Per-Protocol, 2 g, p=0.036", "result": "statistically significant decreases versus placebo"}, {"measurement": "Self-Rated Contentment", "setting": "[2]; Study Per-Protocol", "result": "statistically significant treatment by day interaction"}, {"measurement": "Choice Reaction Time", "setting": "[2]; Study Per-Protocol, p=0.013", "result": "statistically significant treatment by day interaction"}, {"measurement": "Spatial Working Memory Sensitivity Index", "setting": "[2]; Study Per-Protocol, p=0.014", "result": "statistically significant treatment by day interaction"}, {"measurement": "Quality of Working Memory", "setting": "[2]; Study Per-Protocol, p=0.021", "result": "statistically significant treatment by day interaction"}, {"measurement": "Self-Rated Calmness", "setting": "[2]; post-hoc", "result": "no differences between active treatment and placebo"}, {"measurement": "Continuity of Attention", "setting": "[2]; [4]", "result": "no general pattern of effects"}, {"measurement": "Quality of Working Memory and Numeric Working Memory Sensitivity Index", "setting": "[2]; [4]", "result": "only isolated improvements and declines in performance"}, {"measurement": "Power of Attention", "setting": "[2]; post-hoc vs corresponding placebo, 4 g, Day 42", "result": "overall benefit versus the corresponding placebo"}, {"measurement": "Self-rated Alertness and Self-rated Contentment", "setting": "[2]; post-hoc, 1 g, Days 14 and 28", "result": "decreases in ratings"}, {"measurement": "Spatial Working Memory Sensitivity Index", "setting": "[2]; post-hoc, 4 g over placebo, Day 42, Study PP Population", "result": "overall benefit"}, {"measurement": "Simple Reaction Time", "setting": "[2]; post-hoc, 4 g, PM 2 collapsed across days, several time-points on Days 14 and 42", "result": "improvements in performance"}, {"measurement": "Choice Reaction Time", "setting": "[2]; post-hoc, 4 g, all study days", "result": "overall benefit versus corresponding placebo"}, {"measurement": "Quality of Episodic Secondary Memory and contributing subtasks", "setting": "[2]; post-hoc, explained by pre-existing group differences", "result": "a number of decreases"}, {"measurement": "Speed of Memory subtask measures", "setting": "[2]; post-hoc, mostly 1 g versus placebo", "result": "some signs of improvement in performance"}, {"measurement": "LDL-C levels", "setting": "[3]", "result": "without increasing LDL-C levels"}]}]}
